Laboratory results taken from EP4669352A1.
No constants are given. Whether binding was seen depends on the method and setting. Some entries that bind do so weakly or less than the wild type.

Legend:
[1] = biological target: VACV A33 recombinant protein (vaccinia virus) (UniProt P68616); assay: ELISA on recombinant protein
[2] = biological target: VACV A33 recombinant protein (vaccinia virus) (UniProt P68616); assay: restated from ELISA/BLI

B1: EV42 (antibody, V domains shown)
VH: EVQLVESGPRLVKPSETLSLTCAVSGASITSNYWSWIRQPPGKGLEWIGRTPGSSGSTDYNPSLKSRVTISTDTSKNQFSLKLTSVTAADTAVYFCARRYTDSYYLYYFDFWSQGVLVTVSS
VL: QSALTQPPSVSGSPGQSVTISCTGTNSDIGSYKYVSWYQKHPGKAPKLVIYDVSQRPSGVSDRFSGSKSGNTASLTISGLQAEDEADYYCSSYAGINTFNVFGSGTKLTIL
In the case of B1, the binding [1] is reported as “binds” and the binding [2] is reported as “binds”.
